According to the supplement of paper PMC12819154, “High-throughput peptide-centric local stability assay extends protein–ligand identification to membrane proteins, tissues and bacteria” (Nature Structural & Molecular Biology, 2025):
Some of the results follow. Most entries show no effect beyond the scatter of the controls.

Sequences of proteins named here, by UniProt entry; tags and fusion partners are left off. A change or cut given only in a name is not applied to a line headed by its entry.
UniProt Q96C36: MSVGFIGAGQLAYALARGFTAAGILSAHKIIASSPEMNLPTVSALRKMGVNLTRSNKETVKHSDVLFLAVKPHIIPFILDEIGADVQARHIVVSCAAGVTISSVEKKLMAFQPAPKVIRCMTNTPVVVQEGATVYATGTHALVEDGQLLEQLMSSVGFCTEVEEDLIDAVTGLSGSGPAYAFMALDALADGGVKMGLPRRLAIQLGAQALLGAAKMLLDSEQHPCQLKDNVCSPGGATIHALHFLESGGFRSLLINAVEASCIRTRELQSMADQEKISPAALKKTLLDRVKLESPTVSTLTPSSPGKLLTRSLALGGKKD
UniProt Q92947: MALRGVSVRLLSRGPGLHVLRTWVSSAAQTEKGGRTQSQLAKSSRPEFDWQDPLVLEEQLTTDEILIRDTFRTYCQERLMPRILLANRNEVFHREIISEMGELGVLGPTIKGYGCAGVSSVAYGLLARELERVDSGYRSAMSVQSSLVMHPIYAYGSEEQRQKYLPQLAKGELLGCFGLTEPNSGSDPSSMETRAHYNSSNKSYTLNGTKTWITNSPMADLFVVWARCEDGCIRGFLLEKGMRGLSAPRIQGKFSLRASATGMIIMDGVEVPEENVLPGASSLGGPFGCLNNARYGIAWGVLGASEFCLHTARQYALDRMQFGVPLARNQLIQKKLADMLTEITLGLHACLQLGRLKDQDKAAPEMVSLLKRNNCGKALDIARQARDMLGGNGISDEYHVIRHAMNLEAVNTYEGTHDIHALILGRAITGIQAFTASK
UniProt Q96BD5: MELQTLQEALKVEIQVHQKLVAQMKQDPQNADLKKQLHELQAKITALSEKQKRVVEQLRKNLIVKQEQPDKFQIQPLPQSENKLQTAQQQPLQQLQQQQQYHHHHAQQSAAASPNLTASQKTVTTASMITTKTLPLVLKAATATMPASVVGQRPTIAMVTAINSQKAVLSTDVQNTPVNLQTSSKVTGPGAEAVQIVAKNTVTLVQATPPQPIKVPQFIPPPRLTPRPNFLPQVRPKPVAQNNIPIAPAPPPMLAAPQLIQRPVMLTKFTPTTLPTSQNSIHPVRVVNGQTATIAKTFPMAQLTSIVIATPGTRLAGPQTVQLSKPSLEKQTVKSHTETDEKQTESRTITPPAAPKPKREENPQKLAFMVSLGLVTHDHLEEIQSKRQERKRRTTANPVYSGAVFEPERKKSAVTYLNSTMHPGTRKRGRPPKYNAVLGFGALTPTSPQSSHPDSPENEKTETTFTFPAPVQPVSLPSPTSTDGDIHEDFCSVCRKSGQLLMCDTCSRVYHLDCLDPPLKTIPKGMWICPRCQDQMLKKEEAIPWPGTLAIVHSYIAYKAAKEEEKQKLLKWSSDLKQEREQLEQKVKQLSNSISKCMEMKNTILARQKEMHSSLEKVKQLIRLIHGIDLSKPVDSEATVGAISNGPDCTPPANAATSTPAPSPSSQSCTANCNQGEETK
UniProt Q96EQ0: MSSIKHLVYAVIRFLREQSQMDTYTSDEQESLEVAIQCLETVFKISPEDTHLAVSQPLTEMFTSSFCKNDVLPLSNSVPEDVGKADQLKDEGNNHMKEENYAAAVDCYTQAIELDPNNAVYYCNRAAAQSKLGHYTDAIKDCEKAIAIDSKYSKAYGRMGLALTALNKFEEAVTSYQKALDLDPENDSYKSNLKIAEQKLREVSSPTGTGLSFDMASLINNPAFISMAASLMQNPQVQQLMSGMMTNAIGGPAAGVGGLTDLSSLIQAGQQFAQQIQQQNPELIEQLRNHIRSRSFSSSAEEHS
UniProt Q96B26, whole entry: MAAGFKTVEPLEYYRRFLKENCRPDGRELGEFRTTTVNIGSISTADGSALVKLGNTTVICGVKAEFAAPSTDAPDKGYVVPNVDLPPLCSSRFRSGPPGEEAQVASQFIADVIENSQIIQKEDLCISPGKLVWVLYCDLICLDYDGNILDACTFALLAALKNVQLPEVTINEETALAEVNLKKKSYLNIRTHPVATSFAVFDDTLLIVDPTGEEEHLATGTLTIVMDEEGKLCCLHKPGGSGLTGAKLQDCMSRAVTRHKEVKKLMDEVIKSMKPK
UniProt Q96D15: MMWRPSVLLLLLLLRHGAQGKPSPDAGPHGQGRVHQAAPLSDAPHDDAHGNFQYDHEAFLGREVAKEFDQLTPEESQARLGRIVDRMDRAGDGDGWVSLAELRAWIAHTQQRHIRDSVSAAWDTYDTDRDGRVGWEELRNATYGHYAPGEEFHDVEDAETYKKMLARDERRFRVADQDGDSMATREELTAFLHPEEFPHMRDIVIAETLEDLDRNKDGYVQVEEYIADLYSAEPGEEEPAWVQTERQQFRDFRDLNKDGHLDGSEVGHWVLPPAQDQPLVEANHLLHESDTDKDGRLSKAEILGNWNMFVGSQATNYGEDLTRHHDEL
UniProt Q96G97: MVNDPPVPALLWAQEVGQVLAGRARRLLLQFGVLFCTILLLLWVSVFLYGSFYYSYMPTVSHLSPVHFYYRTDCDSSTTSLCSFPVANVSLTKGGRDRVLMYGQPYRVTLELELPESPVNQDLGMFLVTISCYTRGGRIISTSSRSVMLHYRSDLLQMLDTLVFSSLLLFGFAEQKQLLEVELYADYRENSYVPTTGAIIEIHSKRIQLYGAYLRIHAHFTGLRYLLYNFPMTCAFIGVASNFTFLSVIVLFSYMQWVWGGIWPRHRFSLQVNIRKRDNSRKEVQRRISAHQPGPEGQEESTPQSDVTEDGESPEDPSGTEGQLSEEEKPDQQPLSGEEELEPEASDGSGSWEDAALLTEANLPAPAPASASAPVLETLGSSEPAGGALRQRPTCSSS
UniProt Q96CS4: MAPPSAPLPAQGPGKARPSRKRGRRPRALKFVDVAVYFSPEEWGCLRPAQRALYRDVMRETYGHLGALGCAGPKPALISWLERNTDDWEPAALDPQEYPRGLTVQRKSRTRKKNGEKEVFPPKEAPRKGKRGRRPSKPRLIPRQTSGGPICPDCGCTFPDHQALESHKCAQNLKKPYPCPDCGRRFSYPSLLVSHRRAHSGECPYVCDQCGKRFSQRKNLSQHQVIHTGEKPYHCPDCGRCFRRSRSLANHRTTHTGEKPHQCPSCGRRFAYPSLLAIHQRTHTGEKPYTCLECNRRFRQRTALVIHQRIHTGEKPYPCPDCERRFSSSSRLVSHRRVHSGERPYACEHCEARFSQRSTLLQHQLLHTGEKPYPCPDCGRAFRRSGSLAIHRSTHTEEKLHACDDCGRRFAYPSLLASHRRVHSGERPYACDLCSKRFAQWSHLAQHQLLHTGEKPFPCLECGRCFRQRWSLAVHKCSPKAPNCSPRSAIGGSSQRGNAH
UniProt Q96BT3, whole entry: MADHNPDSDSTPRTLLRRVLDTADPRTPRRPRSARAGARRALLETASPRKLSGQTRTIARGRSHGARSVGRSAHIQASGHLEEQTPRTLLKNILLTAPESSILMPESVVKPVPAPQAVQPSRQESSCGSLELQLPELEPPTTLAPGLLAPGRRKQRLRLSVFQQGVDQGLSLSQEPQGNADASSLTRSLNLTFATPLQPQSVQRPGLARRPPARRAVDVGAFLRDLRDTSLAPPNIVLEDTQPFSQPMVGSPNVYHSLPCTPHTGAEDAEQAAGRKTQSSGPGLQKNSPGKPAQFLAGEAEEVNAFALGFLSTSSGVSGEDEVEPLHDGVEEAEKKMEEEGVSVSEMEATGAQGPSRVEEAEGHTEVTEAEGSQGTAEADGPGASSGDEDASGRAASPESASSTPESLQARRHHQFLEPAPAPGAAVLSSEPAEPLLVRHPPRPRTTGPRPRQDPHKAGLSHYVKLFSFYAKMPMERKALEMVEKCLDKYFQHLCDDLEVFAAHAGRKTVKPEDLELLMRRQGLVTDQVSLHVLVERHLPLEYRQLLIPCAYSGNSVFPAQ
UniProt Q92890: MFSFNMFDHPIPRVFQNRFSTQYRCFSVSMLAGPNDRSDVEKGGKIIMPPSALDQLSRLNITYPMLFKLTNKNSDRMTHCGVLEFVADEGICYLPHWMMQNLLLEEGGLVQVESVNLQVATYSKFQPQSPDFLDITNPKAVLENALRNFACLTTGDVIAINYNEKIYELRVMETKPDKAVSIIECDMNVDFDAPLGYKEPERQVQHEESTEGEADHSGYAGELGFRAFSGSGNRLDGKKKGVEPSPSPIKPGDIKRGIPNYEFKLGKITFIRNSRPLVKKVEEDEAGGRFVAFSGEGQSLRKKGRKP
UniProt Q96E14: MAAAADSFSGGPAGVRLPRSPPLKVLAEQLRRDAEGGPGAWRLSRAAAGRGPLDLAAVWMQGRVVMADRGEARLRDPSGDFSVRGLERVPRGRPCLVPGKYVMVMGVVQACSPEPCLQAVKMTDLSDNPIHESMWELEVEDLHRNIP
UniProt Q92831, whole entry, looked up: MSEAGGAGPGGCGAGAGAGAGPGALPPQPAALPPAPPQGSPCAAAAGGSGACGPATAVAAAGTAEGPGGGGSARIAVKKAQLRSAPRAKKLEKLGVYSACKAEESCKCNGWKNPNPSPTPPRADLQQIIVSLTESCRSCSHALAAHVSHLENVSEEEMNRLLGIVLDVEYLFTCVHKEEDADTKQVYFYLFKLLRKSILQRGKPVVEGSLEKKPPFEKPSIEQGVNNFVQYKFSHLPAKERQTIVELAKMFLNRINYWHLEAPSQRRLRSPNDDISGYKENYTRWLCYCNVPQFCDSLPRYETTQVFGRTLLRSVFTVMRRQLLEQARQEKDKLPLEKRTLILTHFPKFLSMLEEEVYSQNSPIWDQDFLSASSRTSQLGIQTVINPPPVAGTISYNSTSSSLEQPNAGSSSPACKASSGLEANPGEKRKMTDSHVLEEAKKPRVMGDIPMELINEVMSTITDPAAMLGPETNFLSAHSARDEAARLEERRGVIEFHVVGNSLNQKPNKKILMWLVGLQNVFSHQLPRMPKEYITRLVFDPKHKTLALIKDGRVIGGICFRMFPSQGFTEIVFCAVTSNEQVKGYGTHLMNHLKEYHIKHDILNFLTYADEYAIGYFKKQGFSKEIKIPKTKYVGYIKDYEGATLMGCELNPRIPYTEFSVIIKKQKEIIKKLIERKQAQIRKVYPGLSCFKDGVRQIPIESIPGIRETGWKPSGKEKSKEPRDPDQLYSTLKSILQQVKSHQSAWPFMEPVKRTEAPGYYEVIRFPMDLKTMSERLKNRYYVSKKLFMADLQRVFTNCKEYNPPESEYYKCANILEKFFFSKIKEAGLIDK
UniProt Q96DN5: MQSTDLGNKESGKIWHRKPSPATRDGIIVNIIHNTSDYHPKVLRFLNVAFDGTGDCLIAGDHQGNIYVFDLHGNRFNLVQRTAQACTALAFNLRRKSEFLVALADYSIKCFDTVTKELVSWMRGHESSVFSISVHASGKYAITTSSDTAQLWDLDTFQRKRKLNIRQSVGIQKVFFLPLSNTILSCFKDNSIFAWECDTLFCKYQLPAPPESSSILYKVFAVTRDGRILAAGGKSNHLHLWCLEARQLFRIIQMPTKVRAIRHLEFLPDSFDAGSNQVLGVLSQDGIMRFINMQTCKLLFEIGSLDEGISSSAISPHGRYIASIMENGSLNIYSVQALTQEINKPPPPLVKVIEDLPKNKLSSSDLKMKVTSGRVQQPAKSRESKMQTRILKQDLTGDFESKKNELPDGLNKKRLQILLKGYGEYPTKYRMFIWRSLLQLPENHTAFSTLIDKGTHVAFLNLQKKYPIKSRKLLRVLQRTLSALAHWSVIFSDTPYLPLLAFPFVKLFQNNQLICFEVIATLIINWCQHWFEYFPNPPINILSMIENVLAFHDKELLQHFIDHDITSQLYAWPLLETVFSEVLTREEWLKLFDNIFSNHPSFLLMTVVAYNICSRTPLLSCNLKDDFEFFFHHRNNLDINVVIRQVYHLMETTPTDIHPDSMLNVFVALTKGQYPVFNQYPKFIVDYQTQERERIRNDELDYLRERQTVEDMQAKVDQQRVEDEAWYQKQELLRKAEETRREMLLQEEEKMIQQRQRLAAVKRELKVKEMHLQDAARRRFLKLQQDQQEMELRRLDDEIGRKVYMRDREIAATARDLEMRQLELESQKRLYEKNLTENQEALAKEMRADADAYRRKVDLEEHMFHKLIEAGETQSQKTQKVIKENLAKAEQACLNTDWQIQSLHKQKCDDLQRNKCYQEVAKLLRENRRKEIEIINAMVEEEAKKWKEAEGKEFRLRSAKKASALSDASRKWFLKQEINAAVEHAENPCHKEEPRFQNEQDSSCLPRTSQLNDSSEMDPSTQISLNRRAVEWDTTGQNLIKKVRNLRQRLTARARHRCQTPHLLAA
UniProt Q96E29: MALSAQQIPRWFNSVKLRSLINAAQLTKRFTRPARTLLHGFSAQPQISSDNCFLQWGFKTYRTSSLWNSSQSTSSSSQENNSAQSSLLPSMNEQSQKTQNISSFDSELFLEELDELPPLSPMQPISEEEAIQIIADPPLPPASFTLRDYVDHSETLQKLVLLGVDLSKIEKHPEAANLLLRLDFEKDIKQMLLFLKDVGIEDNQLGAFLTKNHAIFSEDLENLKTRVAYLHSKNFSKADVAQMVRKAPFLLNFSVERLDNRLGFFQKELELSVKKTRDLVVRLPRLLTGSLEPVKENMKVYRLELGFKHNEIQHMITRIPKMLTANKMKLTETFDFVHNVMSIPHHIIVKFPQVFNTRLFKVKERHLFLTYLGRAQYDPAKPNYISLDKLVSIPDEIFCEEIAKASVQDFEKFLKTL

Compound: CN[C@@H]1C[C@H]2O[C@@](C)([C@@H]1OC)n1c3ccccc3c3c4c(c5c6ccccc6n2c5c31)C(=O)NC4 [staurosporine]
Assay: log2 fold change of tryptic peptide abundance, ligand vs vehicle (limited proteolysis) (log2 ratio); higher = more trypsin-susceptible (destabilized)
Conditions: ligand concentration: 20 uM; sample: K562 cleared lysate; digestion: 4 min, 22 C (HT-PELSA RT4min, Orbitrap Astral)

Target: WBP2 (peptide sequence: MLQVASQASR, peptide start residue: 126) (UniProt Q969T9)
- log2 fold change: 0.171

Target: DCUN1D1 (peptide sequence: TAVSCLSQNDWK, peptide start residue: 25) (UniProt Q96GG9)
- log2 fold change: -0.107

Target: SLC10A4 (peptide sequence: KLKEEEMADTSYGTVK, peptide start residue: 408) (UniProt Q96EP9)
- log2 fold change: -0.249

Target: UniProt Q96CJ1 (peptide sequence: KEQQQQQMWNSAR, peptide start residue: 124)
- log2 fold change: -0.0989

Target: MSI2 (peptide sequence: SRGFGFVTFADPASVDK, peptide start residue: 61) (UniProt Q96DH6)
- log2 fold change: -0.649

Target: CCDC102A (peptide sequence: ELAQAEDELDEAHNQAR, peptide start residue: 466) (UniProt Q96A19)
- log2 fold change: 0.8

Target: UniProt Q96EU6 (peptide sequence: HLSGEEHEK, peptide start residue: 159)
- log2 fold change: 0.426

Target: SYTL4 (peptide sequence: QKEPSVLFEVPK, peptide start residue: 176) (UniProt Q96C24)
- log2 fold change: -0.366

Target: PYCR2 (peptide sequence: HIVVSCAAGVTISSVEK, peptide start residue: 90) (UniProt Q96C36)
- log2 fold change: -0.516

Target: ADAT3 (peptide sequence: EVSALHPLPAQPHLK, peptide start residue: 62) (UniProt Q96EY9)
- log2 fold change: 0.276

Target: LRRC45 (peptide sequence: VGQLQEALNER, peptide start residue: 284) (UniProt Q96CN5)
- log2 fold change: -0.365

Target: LSM10 (peptide sequence: LDDLFVTGR, peptide start residue: 69) (UniProt Q969L4)
- log2 fold change: -0.453

Target: UniProt Q96B45 (peptide sequence: NVEQSSDLQDQLNHLLK, peptide start residue: 90)
- log2 fold change: -0.127

Target: NSUN4 (peptide sequence: TLALLQTGCCR, peptide start residue: 188) (UniProt Q96CB9)
- log2 fold change: 0.439

Target: UniProt Q96EY4 (peptide sequence: EKLKNEK, peptide start residue: 38)
- log2 fold change: 0.592

Target: GCDH (peptide sequence: AAPEMVSLLKR, peptide start residue: 362) (UniProt Q92947)
- log2 fold change: 0.369

Target: PINX1 (peptide sequence: KSFSLEEK, peptide start residue: 109) (UniProt Q96BK5)
- log2 fold change: -0.36

Target: PHF21A (peptide sequence: GMWICPRCQDQMLK, peptide start residue: 525) (UniProt Q96BD5)
- log2 fold change: 0.586

Target: LRRC59 (peptide sequence: LQQLPADFGR, peptide start residue: 74) (UniProt Q96AG4)
- log2 fold change: 0.175

Target: DCPS (peptide sequence: ELDVEEAHAASTEEK, peptide start residue: 14) (UniProt Q96C86)
- log2 fold change: -0.0793

Target: SGTB (peptide sequence: LGHYTDAIK, peptide start residue: 132) (UniProt Q96EQ0)
- log2 fold change: 0.329

Target: EXOSC8 (peptide sequence: LGNTTVICGVK, peptide start residue: 53) (UniProt Q96B26)
- log2 fold change: 0.578

Target: PPP1R14A (peptide sequence: GPGGSPGGLQKR, peptide start residue: 22) (UniProt Q96A00)
- log2 fold change: 0.646

Target: UniProt Q96DM3 (peptide sequence: MDDKGEVK, peptide start residue: 61)
- log2 fold change: -0.787

Target: RCN3 (peptide sequence: DIVIAETLEDLDRNK, peptide start residue: 202) (UniProt Q96D15)
- log2 fold change: 0.227

Target: UniProt Q96EL1 (peptide sequence: LSCPPRPEPELPADVSR, peptide start residue: 250)
- log2 fold change: 0.182

Target: NT5C3B (peptide sequence: AHNLLCQQK, peptide start residue: 109) (UniProt Q969T7)
- log2 fold change: 0.747

Target: BSCL2 (peptide sequence: FSLQVNIR, peptide start residue: 268) (UniProt Q96G97)
- log2 fold change: -0.0766

Target: UniProt Q96EF9 (peptide sequence: SFFPHSGK, peptide start residue: 203)
- log2 fold change: 0.163

Target: AKT1S1 (peptide sequence: LNTSDFQK, peptide start residue: 244) (UniProt Q96B36)
- log2 fold change: -0.06

Target: UniProt Q96CS4 (peptide sequence: FSYPSLLVSHR, peptide start residue: 186)
- log2 fold change: 0.314

Target: ITPKC (peptide sequence: THEVVGSSLLFVHDHTGLAK, peptide start residue: 614) (UniProt Q96DU7)
- log2 fold change: 0.236

Target: UBE2W (peptide sequence: WWYHDDTC, peptide start residue: 144) (UniProt Q96B02)
- log2 fold change: -0.739

Target: UniProt Q96G23 (peptide sequence: SRPLANGHPILNNNHR, peptide start residue: 362)
- log2 fold change: -0.11

Target: OTUB2 (peptide sequence: CDILSILR, peptide start residue: 13) (UniProt Q96DC9)
- log2 fold change: 0.0314

Target: CENPT (peptide sequence: SAHIQASGHLEEQTPR, peptide start residue: 72) (UniProt Q96BT3)
- log2 fold change: -0.411

Target: UniProt Q96A08 (peptide sequence: ESYSIYIYK, peptide start residue: 37)
- log2 fold change: -0.205

Target: UniProt Q92890 (peptide sequence: MFSFNMFDHPIPR, peptide start residue: 1)
- log2 fold change: -0.352

Target: UniProt Q93015 (peptide sequence: KAPNLTAQAAPR, peptide start residue: 223)
- log2 fold change: 0.295

Target: RUNDC1 (peptide sequence: VKEQLVEQLK, peptide start residue: 262) (UniProt Q96C34)
- log2 fold change: 0.778

Target: MAGOHB (peptide sequence: CLVFSLIGLHFK, peptide start residue: 133) (UniProt Q96A72)
- log2 fold change: 0.358

Target: HPS3 (peptide sequence: MIGHNVEGPFSK, peptide start residue: 108) (UniProt Q969F9)
- log2 fold change: 0.284

Target: BORCS8 (peptide sequence: MEEPEMQLK, peptide start residue: 1) (UniProt Q96FH0)
- log2 fold change: 0.154

Target: REX1BD (peptide sequence: IHQLQAER, peptide start residue: 45) (UniProt Q96EN9)
- log2 fold change: -0.552

Target: UniProt Q96BW9 (peptide sequence: LGLSAIVRPSSIR, peptide start residue: 291)
- log2 fold change: 0.0137

Target: POP5 (peptide sequence: VHGTFGAAACSIGFAVR, peptide start residue: 40) (UniProt Q969H6)
- log2 fold change: -0.433

Target: EXOC4 (peptide sequence: EFLTVYIK, peptide start residue: 526) (UniProt Q96A65)
- log2 fold change: -0.154

Target: RAD50 (peptide sequence: LMRQDIDTQKIQER, peptide start residue: 1003) (UniProt Q92878)
- log2 fold change: 0.791

Target: RMI2 (peptide sequence: SPPLKVLAEQLR, peptide start residue: 20) (UniProt Q96E14)
- log2 fold change: 0.283

Target: UniProt Q92831 (peptide sequence: GKPVVEGSLEK, peptide start residue: 202)
- log2 fold change: 0.403

Target: FAF2 (peptide sequence: FQIEANFPR, peptide start residue: 401) (UniProt Q96CS3)
- log2 fold change: 0.169

Target: THOC1 (peptide sequence: RHILLQYLILFQYLK, peptide start residue: 319) (UniProt Q96FV9)
- log2 fold change: 0.73

Target: RPL3L (peptide sequence: VACIGAWHPAR, peptide start residue: 251) (UniProt Q92901)
- log2 fold change: -0.209

Target: UniProt Q96GE4 (peptide sequence: HKVQENIGPLR, peptide start residue: 495)
- log2 fold change: 0.528

Target: OPTN (peptide sequence: SSEDPTDDSR, peptide start residue: 121) (UniProt Q96CV9)
- log2 fold change: 0.758

Target: UniProt Q96DN5 (peptide sequence: CQTPHLLAA, peptide start residue: 1058)
- log2 fold change: -0.741

Target: UniProt Q96E29 (peptide sequence: DYVDHSETLQK, peptide start residue: 148)
- log2 fold change: -0.368

Target: RPUSD4 (peptide sequence: MTLSPSYR, peptide start residue: 218) (UniProt Q96CM3)
- log2 fold change: -0.203

Target: UniProt Q96BA8 (peptide sequence: TLIAEGYPIPTKLPLTK, peptide start residue: 269)
- log2 fold change: 0.815

Target: UniProt Q96AV8 (peptide sequence: YPSYPLSTEK, peptide start residue: 158)
- log2 fold change: 0.658

Target: DVL3 (peptide sequence: AMASPESGLEVR, peptide start residue: 418) (UniProt Q92997)
- log2 fold change: -0.265

Target: UniProt Q96D53 (peptide sequence: QLLANDPFFRVPAVVK, peptide start residue: 299)
- log2 fold change: 0.242
